Assay results as given in the supplement of paper PMC4604168 (melanoma cell lines).
The list shows a part of the results. Repeats are few or missing, and single values can be far off.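 The apoptosis fraction was the count of cleaved-PARP antibody-stained nuclei relative to all DNA-stained nuclei, imaged in 1,536-well plates. Screening doses were set so most cells survived, and baseline and induced cleaved-PARP levels vary greatly across cell lines.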

System: CBRC016 (line from a melanoma biopsy)
Assay: cleaved PARP positive nuclei fraction relative to DMSO control; melanoma cells; higher = more apoptosis
Settings: library dose: low library concentration; 72 h

Row | Structure (SMILES) | cleaved PARP positive nuclei fraction
1 | Cc1cc(Nc2cc(N3CCN(C)CC3)nc(Sc3ccc(NC(=O)C4CC4)cc3)n2)n[nH]1 [Tozasertib] + N#Cc1c(O)c2c(-c3ccc(-c4ccccc4O)cc3)csc2[nH]c1=O [A769662] (first compound 0.006 µM, partner dose 2 µM) | 38.7%
2 | O=C(Nc1cc(C(F)(F)F)cc(C(F)(F)F)c1)c1cc(Cl)ccc1O + COc1ccc(COc2ccc(Cc3cnc(N)nc3N)cc2OC)cc1 [GW2580] (first compound 0.016 µM, partner dose 1 µM) | 198%
3 | O=C(/C=C/c1cccnc1)NCCCCC1CCN(C(=O)c2ccccc2)CC1 + COc1cc(N2CCC(N3CCN(C)CC3)CC2)ccc1Nc1ncc(Cl)c(Nc2ccccc2S(=O)(=O)C(C)C)n1 [NVP-TAE684] (first compound 0.01 µM, partner dose 0.08 µM) | 245%
4 | N#CC[C@H](C1CCCC1)n1cc(-c2ncnc3[nH]ccc23)cn1 [ruxolitinib] + Cn1cc(/C=C2\C(=O)Nc3cccnc32)c2ccccc21 [GW441756] (first compound 1 µM, partner dose 0.4 µM) | 127%
5 | CCCCCCCCCCCCCCCCCCOP(=O)([O-])OC1CC[N+](C)(C)CC1 [Perifosine] + Oc1nc(-c2ccc(C(F)(F)F)cc2)nc2c1CSCC2 [XAV939] (first compound 0.4 µM, partner dose 2 µM) | 844%
6 | O=C(/C=C/c1cccnc1)NCCCCC1CCN(C(=O)c2ccccc2)CC1 + Oc1nc(-c2ccc(C(F)(F)F)cc2)nc2c1CSCC2 [XAV939] (first compound 0.01 µM, partner dose 2 µM) | 123%
7 | Cc1ccc(Nc2nccc(N(C)c3ccc4c(C)n(C)nc4c3)n2)cc1S(N)(=O)=O [Pazopanib] + N#Cc1c(O)c2c(-c3ccc(-c4ccccc4O)cc3)csc2[nH]c1=O [A769662] (first compound 0.4 µM, partner dose 2 µM) | 75.7%
8 | N#CC[C@H](C1CCCC1)n1cc(-c2ncnc3[nH]ccc23)cn1 [ruxolitinib] + COc1cc2ncnc(Nc3ccc(Oc4ccccc4)cc3)c2cc1OC [SrcI1] (first compound 1 µM, partner dose 2 µM) | 140%
9 | O=C(Nc1cc(C(F)(F)F)cc(C(F)(F)F)c1)c1cc(Cl)ccc1O + CCN(CC)CCCCNc1ncc2cc(-c3cc(OC)cc(OC)c3)c(NC(=O)NC(C)(C)C)nc2n1 [PD173074] (first compound 0.016 µM, partner dose 0.1 µM) | 37.7%
10 | CCCCCCCCCCCCCCCCCCOP(=O)([O-])OC1CC[N+](C)(C)CC1 [Perifosine] + COc1ccc2c(c1)CCC1C2CCC2(C)C(NCCCCCCN3C(=O)C=CC3=O)CCC12 [U73122] (first compound 0.4 µM, partner dose 0.4 µM) | 146%
11 | O=c1[nH]nc(Sc2ncc([N+](=O)[O-])s2)n1-c1ccc2c(c1)OCCO2 + N#Cc1c(O)c2c(-c3ccc(-c4ccccc4O)cc3)csc2[nH]c1=O [A769662] (first compound 0.2 µM, partner dose 2 µM) | 21%
12 | O=c1[nH]nc(Sc2ncc([N+](=O)[O-])s2)n1-c1ccc2c(c1)OCCO2 + COc1ccc2c(c1)CCC1C2CCC2(C)C(NCCCCCCN3C(=O)C=CC3=O)CCC12 [U73122] (first compound 0.2 µM, partner dose 0.4 µM) | 160%
13 | N#CC[C@H](C1CCCC1)n1cc(-c2ncnc3[nH]ccc23)cn1 [ruxolitinib] + O=C(Nc1ccccc1)c1cc([N+](=O)[O-])ccc1Cl [GW9662] (first compound 1 µM, partner dose 2 µM) | 145%
14 | O=C(/C=C/c1cccnc1)NCCCCC1CCN(C(=O)c2ccccc2)CC1 + O=c1cc(-c2cccc3c2Sc2ccccc2S3)oc(N2CCOCC2)c1 [KU55933] (first compound 0.01 µM, partner dose 1 µM) | 702%
15 | CCCCCCCCCCCCCCCCCCOP(=O)([O-])OC1CC[N+](C)(C)CC1 [Perifosine] + Cc1cc([N+](=O)[O-])ccc1NS(=O)(=O)c1cc(Cl)ccc1Cl [FH535] (first compound 0.4 µM, partner dose 1 µM) | 1430%
16 | N#CC[C@H](C1CCCC1)n1cc(-c2ncnc3[nH]ccc23)cn1 [ruxolitinib] + O=S(=O)(c1ccccc1)N(CC(F)(F)F)c1ccc(C(O)(C(F)(F)F)C(F)(F)F)cc1 [T0901317] (first compound 1 µM, partner dose 1.4 µM) | 39.8%

Part of the list above, set out differently.
Row	Structure (SMILES)	cleaved PARP positive nuclei fraction
3	O=C(/C=C/c1cccnc1)NCCCCC1CCN(C(=O)c2ccccc2)CC1 + COc1cc(N2CCC(N3CCN(C)CC3)CC2)ccc1Nc1ncc(Cl)c(Nc2ccccc2S(=O)(=O)C(C)C)n1 [NVP-TAE684] (first compound 0.01 µM, partner dose 0.08 µM)	245%
4	N#CC[C@H](C1CCCC1)n1cc(-c2ncnc3[nH]ccc23)cn1 [ruxolitinib] + Cn1cc(/C=C2\C(=O)Nc3cccnc32)c2ccccc21 [GW441756] (first compound 1 µM, partner dose 0.4 µM)	127%

The listing continues.

Row | Structure (SMILES) | cleaved PARP positive nuclei fraction
17 | Cc1cn(-c2cc(NC(=O)c3ccc(C)c(Nc4nccc(-c5cccnc5)n4)c3)cc(C(F)(F)F)c2)cn1 [nilotinib] + COC(=O)c1sccc1S(=O)(=O)Nc1ccc(Nc2ccccc2)cc1OC [GSK0660] (first compound 0.2 µM, partner dose 1 µM) | 41.2%
18 | Cc1ccc(Nc2nccc(N(C)c3ccc4c(C)n(C)nc4c3)n2)cc1S(N)(=O)=O [Pazopanib] + O=C(O)C(=O)Nc1sc2c(c1C(=O)O)CCNC2 [TCS401] (first compound 0.4 µM, partner dose 1.66667 µM) | 72.6%
19 | N#CC[C@H](C1CCCC1)n1cc(-c2ncnc3[nH]ccc23)cn1 [ruxolitinib] + COc1ccc(COc2ccc(Cc3cnc(N)nc3N)cc2OC)cc1 [GW2580] (first compound 1 µM, partner dose 1 µM) | 74.1%
20 | Cc1ccc(Nc2nccc(N(C)c3ccc4c(C)n(C)nc4c3)n2)cc1S(N)(=O)=O [Pazopanib] + CCc1ccc(CCOc2ccc(CC3SC(=O)NC3=O)cc2)nc1 [pioglitazone] (first compound 0.4 µM, partner dose 2 µM) | 78.4%
21 | Cc1cc(Nc2cc(N3CCN(C)CC3)nc(Sc3ccc(NC(=O)C4CC4)cc3)n2)n[nH]1 [Tozasertib] + c1cc(-c2cnn3cc(-c4ccc(OCCN5CCCCC5)cc4)cnc23)ccn1 [Dorsomorphin] (first compound 0.006 µM, partner dose 0.4 µM) | 18.8%
22 | Cc1ccc(Nc2nccc(N(C)c3ccc4c(C)n(C)nc4c3)n2)cc1S(N)(=O)=O [Pazopanib] + COC(=O)c1sccc1S(=O)(=O)Nc1ccc(Nc2ccccc2)cc1OC [GSK0660] (first compound 0.4 µM, partner dose 1 µM) | 86.5%
23 | COc1cc([C@@H]2c3cc4c(cc3[C@@H](O[C@@H]3O[C@@H]5CO[C@@H](C)O[C@H]5[C@H](O)[C@H]3O)[C@H]3COC(=O)[C@H]23)OCO4)cc(OC)c1O [etoposide] + O=S(=O)(c1ccccc1)N(CC(F)(F)F)c1ccc(C(O)(C(F)(F)F)C(F)(F)F)cc1 [T0901317] (first compound 0.02 µM, partner dose 1.4 µM) | 82.2%
24 | O=c1[nH]nc(Sc2ncc([N+](=O)[O-])s2)n1-c1ccc2c(c1)OCCO2 + c1cc(-c2cnn3cc(-c4ccc(OCCN5CCCCC5)cc4)cnc23)ccn1 [Dorsomorphin] (first compound 0.2 µM, partner dose 0.4 µM) | 82.3%
25 | Cc1cc(Nc2cc(N3CCN(C)CC3)nc(Sc3ccc(NC(=O)C4CC4)cc3)n2)n[nH]1 [Tozasertib] + Oc1cc(-c2nc(-c3ccccc3)[nH]c2-c2ccncc2)ccc1Cl [L779450] (first compound 0.006 µM, partner dose 0.2 µM) | 74.7%
26 | Cc1cc(Nc2cc(N3CCN(C)CC3)nc(Sc3ccc(NC(=O)C4CC4)cc3)n2)n[nH]1 [Tozasertib] + Cn1cc(/C=C2\C(=O)Nc3cccnc32)c2ccccc21 [GW441756] (first compound 0.006 µM, partner dose 0.4 µM) | 40.2%
27 | Cc1cn(-c2cc(NC(=O)c3ccc(C)c(Nc4nccc(-c5cccnc5)n4)c3)cc(C(F)(F)F)c2)cn1 [nilotinib] + O=C(O)C(=O)Nc1sc2c(c1C(=O)O)CCNC2 [TCS401] (first compound 0.2 µM, partner dose 1.66667 µM) | 83.3%
28 | Cc1cn(-c2cc(NC(=O)c3ccc(C)c(Nc4nccc(-c5cccnc5)n4)c3)cc(C(F)(F)F)c2)cn1 [nilotinib] + O=S(=O)(c1ccccc1)N(CC(F)(F)F)c1ccc(C(O)(C(F)(F)F)C(F)(F)F)cc1 [T0901317] (first compound 0.2 µM, partner dose 1.4 µM) | 65.2%
29 | COc1cc([C@@H]2c3cc4c(cc3[C@@H](O[C@@H]3O[C@@H]5CO[C@@H](C)O[C@H]5[C@H](O)[C@H]3O)[C@H]3COC(=O)[C@H]23)OCO4)cc(OC)c1O [etoposide] + Cc1cc([N+](=O)[O-])ccc1NS(=O)(=O)c1cc(Cl)ccc1Cl [FH535] (first compound 0.02 µM, partner dose 1 µM) | 321%
30 | N#CC[C@H](C1CCCC1)n1cc(-c2ncnc3[nH]ccc23)cn1 [ruxolitinib] + N#Cc1c(O)c2c(-c3ccc(-c4ccccc4O)cc3)csc2[nH]c1=O [A769662] (first compound 1 µM, partner dose 2 µM) | 88.9%
31 | COc1cc([C@@H]2c3cc4c(cc3[C@@H](O[C@@H]3O[C@@H]5CO[C@@H](C)O[C@H]5[C@H](O)[C@H]3O)[C@H]3COC(=O)[C@H]23)OCO4)cc(OC)c1O [etoposide] + O=C1NC(=O)/C(=C/c2ccc(-c3ccc(F)cc3O)o2)S1 [AS252424] (first compound 0.02 µM, partner dose 1 µM) | 53.3%
